Test results published in publication doi:10.1101/2020.02.14.950204.
No constants are given. Whether binding was seen depends on the method and setting. In cells and extracts the contact can be indirect. These calls come from enrichment with a bait or labelling near it, and not all partners need be listed. Blank lines part the entries; values can stand above or below the binder they belong to.

Columns and labels:
[1] = biological target: T1, BRCA2 and MEILB2-associated protein1 (BRME1) (mouse (endogenous in testis)), Q6DIA7; assay: affinity purification with mass spectrometry; settings: remark: other sources report otherwise
T1 chain: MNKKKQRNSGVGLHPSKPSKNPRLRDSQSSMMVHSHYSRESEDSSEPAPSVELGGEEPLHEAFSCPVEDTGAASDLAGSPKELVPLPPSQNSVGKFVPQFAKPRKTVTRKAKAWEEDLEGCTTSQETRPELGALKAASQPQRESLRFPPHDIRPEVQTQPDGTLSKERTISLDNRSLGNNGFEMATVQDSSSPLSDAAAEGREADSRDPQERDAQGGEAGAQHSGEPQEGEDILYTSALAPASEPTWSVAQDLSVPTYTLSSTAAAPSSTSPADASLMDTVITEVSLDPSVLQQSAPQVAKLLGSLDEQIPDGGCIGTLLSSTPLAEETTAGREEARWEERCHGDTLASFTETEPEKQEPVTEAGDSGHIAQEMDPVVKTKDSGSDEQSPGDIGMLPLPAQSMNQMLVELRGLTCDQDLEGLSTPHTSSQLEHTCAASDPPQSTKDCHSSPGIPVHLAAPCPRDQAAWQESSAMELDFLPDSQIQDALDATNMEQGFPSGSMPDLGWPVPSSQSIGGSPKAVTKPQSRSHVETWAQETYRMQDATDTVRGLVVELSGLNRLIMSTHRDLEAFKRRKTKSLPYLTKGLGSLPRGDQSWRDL

[2] = biological target: T2, BRCA2 and MEILB2-associated protein1 (BRME1) (mouse (endogenous in testis)) (UniProt Q6DIA7); assay: affinity purification with mass spectrometry
T2 sequence: T1 chain

binding [1]: binds
B1: MEIOB, Q9D513 1-470 (protein)
chain: MAKFFALKNFTALSDLHPNMANLKIIGIVIGKTDVKGFPDRKNIGSERYTFSFTIRDSPCHFVNVSSWGSEDYIRSLSESFRVAECVIIENPLIQRKDTEREEKFSPATPSNYKLLLSENHSMVKVCSPYEVDTKLLSLIHLPVKESRDYYSLADIVANGHSLDGRIINVLAAVRSVGEPKYFTTSDRRKGQRCEVKLFDETEPSFTMTCWDNESILLAQSWMARETVIFASDVRINFNKFQNCMAATVISKTIITVNPDTPEANILLNYIRENKETNVADEIDSYLKESVNLNTIVDVYTVEQLKVKALKSEGKADPFYGILYAYISTLNIDDETTKVVRNRCSSCGYIVNEASNTCTICNQDSSRLKSFFLSFDVLVDLTDHTGTLHSCSLSGSIAEETLGCTINEFLTMTSEQKTKLKWQLLLERSKIYLKLILSHRARGGLKVTILSCKLADPTEASRNLARQGHT

binding [1]: binds
B2: RPA1, Q8VEE4 1-623 (protein)
chain: MVGHLSEGAIEVMIQQENTSIKPILQVINIRPISTGNRSPRYRLLMSDGLNTLSSFMLATQLNTLVEGGQLASNCVCQVHKFIVNTLKDGRKVVVLMDLEVMKSAEDVGLKIGNPVPYNEGYGQQQQQQQQQQQQAVPSPASAATPPASKPQPQNGSLGMGSTAAKAYGASKPFGKPAGTGLLQPSGGTQSKVVPIASLTPYQSKWTICARVTNKSQIRTWSNSRGEGKLFSLELVDESGEIRATAFNEQVDKFFPLIEVNKVYYFSKGALKIANKQFSAVKNDYEMTFNNETSVLPCEDGHHLPTVQFDFTGIGDLESKAKDALVDIIGICKSYEDSIKITVKSNNREVAKRNIYLMDMSGKVVTTTLWGEDADKFDGSRQPVMAIKGARVSDFGGRSLSVLSSSTVIVNPDIPEAYKLRGWFDSEGQALDGVSISDHRSGGAGGGNTNWKTLHEAKSENLGQGDKADYFSTVAAVVFLRKENCMYQACPTQDCNKKVIDQQNGLYRCEKCDREFPNFKYRMILSANIADFQENQWVTCFQESAEAILGQNTMYLGELKEKNEQAFEEVFQNANFRSFTFRIRVKLETYNDESRIKATVMDVKPVDFRDYGRRLIANIRKNM

binding [2]: binds
B3: MEILB2/HSF2BP (protein, UniProt Q9D4G2 1-338)
chain: MAATVGDGSGTEEACRNMESKEEFVKVRKKDLERLTTEVMQIRDFLPRILNGELLESFQKLKMVEKNLERKEQELEQLIMDREHFKARLETAQADSGREKKEKLALRQQLNEAKQQLLQQAEYCTQMGAVTCTLLWGVSSSEEVVKTILGGDKALKFFNITGQTMESFVKSLDGDVKEVDSDENQFVFALAGIVTNVAAIACGREFLVNSSRVLLDTMLQLLGDLKPGQCTKLKVLMLMSLYNVSINSKGLKYITESPGFIPLLWWLLSDPDAEVCLHTLRLIQSVVLEPDVFSKVASELQSSLPLQRILAMSKSRNSHLQSAAQELLEDLRALDCNV
